The other results are listed elsewhere or left out. Most values lie at the level of the controls, where differences are scatter.

Chains of the proteins cited; added tags and fusions are not shown. Lines headed by an entry give the natural chain unless they say otherwise; changes in a name come on top.
UniProt Q9DCJ7: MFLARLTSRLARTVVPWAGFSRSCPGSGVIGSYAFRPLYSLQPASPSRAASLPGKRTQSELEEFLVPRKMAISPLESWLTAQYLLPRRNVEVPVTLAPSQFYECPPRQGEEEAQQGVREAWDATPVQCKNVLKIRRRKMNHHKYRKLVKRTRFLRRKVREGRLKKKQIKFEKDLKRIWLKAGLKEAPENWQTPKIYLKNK
UniProt Q9DBE9: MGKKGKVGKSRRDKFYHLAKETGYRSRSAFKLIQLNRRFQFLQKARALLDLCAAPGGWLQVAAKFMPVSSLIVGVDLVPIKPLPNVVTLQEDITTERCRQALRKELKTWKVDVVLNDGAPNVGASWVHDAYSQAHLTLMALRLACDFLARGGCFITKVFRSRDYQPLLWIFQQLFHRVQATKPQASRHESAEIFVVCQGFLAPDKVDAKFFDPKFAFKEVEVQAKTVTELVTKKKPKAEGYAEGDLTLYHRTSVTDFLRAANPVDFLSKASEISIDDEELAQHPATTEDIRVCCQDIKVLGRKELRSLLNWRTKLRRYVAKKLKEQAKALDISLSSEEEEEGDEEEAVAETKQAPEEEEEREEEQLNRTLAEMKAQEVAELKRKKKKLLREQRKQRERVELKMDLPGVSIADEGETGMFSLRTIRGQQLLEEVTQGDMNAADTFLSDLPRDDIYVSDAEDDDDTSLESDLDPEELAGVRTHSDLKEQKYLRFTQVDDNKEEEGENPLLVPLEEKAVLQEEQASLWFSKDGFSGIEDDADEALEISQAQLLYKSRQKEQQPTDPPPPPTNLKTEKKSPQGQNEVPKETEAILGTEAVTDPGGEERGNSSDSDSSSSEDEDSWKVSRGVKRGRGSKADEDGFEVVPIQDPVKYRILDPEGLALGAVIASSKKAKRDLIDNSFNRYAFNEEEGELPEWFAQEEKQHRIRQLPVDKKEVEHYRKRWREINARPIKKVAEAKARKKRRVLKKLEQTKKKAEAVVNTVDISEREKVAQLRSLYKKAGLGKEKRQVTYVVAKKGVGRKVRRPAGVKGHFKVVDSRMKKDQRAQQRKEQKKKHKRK
UniProt Q9DBY8: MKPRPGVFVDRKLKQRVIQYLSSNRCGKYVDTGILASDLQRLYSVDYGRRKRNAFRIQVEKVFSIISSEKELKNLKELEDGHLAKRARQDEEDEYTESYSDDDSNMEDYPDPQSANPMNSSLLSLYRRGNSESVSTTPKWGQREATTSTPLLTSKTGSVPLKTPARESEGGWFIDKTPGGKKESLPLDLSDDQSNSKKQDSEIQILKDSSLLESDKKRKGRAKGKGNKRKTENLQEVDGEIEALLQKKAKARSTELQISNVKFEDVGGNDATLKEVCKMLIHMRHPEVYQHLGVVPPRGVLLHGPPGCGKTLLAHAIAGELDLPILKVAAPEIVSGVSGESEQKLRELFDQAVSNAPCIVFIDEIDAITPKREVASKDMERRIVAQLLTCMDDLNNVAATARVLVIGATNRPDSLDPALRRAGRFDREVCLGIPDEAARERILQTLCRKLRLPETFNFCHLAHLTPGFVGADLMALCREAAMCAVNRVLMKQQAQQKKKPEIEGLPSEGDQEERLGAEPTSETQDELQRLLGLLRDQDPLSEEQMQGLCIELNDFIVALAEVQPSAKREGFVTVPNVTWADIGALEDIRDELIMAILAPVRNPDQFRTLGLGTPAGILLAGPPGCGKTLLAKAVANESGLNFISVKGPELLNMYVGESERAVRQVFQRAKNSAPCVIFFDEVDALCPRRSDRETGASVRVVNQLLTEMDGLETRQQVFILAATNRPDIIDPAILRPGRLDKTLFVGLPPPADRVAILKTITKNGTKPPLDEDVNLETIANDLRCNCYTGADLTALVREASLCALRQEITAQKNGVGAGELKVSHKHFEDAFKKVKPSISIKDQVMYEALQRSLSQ
UniProt Q9DB07: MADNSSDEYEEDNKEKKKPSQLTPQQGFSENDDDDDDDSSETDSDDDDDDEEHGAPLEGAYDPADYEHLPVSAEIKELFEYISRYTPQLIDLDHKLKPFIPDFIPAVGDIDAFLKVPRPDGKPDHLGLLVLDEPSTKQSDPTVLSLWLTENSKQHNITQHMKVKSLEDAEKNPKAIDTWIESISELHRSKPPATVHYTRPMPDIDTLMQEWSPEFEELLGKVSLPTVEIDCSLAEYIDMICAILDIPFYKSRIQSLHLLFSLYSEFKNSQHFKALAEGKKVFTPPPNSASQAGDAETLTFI
UniProt Q9DCT5: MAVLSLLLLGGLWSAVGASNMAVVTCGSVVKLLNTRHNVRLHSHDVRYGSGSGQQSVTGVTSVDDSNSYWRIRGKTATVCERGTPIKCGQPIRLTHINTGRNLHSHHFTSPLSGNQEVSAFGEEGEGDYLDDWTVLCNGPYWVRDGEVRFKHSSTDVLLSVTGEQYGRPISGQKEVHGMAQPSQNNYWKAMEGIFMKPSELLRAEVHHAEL
UniProt Q9DB05: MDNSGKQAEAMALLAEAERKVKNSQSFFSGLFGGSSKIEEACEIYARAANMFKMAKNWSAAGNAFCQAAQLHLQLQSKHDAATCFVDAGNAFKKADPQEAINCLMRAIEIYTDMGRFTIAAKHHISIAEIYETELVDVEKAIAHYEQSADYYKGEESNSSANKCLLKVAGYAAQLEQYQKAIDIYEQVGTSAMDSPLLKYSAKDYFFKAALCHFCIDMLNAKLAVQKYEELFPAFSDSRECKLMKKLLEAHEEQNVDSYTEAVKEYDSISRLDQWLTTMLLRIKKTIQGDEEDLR
UniProt Q9DB52: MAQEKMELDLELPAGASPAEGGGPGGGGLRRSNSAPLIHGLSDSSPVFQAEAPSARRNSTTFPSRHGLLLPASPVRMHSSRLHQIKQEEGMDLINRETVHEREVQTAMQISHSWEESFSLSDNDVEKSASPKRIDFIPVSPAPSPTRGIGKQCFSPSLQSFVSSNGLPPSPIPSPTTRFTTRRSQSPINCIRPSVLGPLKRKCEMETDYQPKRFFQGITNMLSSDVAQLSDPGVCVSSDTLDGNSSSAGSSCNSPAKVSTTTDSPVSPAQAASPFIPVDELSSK
UniProt Q9DBY0: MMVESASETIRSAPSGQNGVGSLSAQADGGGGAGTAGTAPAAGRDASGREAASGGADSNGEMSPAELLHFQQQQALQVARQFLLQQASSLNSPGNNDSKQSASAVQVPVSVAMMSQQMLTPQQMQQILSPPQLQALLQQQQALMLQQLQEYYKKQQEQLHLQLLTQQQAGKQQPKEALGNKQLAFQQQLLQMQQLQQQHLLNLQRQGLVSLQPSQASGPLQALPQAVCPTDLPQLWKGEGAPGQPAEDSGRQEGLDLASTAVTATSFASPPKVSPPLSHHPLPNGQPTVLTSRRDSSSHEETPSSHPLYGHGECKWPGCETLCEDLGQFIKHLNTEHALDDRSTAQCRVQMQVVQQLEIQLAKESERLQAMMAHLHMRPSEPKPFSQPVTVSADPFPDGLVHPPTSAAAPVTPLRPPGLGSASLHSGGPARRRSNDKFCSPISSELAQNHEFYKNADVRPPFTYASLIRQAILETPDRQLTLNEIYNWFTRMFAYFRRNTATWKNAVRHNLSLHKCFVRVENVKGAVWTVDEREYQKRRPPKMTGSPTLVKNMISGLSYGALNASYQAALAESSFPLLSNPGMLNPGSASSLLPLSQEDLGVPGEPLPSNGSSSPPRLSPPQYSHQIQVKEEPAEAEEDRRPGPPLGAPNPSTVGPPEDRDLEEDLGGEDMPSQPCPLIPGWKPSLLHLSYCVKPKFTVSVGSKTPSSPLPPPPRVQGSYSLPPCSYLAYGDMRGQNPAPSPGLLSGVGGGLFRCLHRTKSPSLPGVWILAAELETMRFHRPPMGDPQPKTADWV
UniProt Q9DCJ1, whole entry: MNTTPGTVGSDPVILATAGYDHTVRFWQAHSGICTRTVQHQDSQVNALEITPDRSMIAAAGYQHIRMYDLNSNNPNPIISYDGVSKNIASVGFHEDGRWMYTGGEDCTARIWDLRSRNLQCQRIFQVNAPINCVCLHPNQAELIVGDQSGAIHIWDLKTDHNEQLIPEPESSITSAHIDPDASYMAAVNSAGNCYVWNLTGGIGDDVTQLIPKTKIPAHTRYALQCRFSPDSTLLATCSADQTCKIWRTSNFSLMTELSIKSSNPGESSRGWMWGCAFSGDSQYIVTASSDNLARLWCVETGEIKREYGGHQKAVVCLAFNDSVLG
UniProt Q9DCD5: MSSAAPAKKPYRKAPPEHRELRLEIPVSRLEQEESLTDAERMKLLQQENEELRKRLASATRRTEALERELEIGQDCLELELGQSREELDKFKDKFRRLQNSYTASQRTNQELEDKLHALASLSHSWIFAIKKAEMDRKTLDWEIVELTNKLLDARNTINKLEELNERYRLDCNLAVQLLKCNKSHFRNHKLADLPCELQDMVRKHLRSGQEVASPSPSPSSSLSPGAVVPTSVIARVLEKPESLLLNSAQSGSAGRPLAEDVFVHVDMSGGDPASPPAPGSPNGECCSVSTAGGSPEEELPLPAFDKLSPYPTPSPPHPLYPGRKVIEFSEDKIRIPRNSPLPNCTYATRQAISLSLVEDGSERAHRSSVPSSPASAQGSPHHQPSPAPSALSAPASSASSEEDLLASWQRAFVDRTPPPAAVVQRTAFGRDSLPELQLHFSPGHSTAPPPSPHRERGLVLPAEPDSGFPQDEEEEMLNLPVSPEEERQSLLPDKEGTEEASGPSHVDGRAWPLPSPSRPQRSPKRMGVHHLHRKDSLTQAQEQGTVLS
UniProt Q9DCS3: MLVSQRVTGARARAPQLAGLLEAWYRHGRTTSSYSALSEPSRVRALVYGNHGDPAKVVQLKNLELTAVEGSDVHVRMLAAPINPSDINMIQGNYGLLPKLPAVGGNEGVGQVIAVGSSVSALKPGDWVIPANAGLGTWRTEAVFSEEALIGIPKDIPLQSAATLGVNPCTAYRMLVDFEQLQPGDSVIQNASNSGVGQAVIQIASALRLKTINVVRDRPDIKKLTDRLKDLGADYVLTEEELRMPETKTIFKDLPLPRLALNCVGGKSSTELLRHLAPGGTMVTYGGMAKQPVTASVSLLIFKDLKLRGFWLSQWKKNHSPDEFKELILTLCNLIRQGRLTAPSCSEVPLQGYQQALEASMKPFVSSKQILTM
UniProt Q9DC07: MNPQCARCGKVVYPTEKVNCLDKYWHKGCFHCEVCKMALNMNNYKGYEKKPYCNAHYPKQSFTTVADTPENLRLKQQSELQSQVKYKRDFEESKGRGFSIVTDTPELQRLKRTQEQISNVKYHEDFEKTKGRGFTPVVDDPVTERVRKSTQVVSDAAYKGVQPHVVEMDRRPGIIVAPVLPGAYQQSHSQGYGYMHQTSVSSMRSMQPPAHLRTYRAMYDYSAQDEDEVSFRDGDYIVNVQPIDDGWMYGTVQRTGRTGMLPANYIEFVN
UniProt Q9DAW6: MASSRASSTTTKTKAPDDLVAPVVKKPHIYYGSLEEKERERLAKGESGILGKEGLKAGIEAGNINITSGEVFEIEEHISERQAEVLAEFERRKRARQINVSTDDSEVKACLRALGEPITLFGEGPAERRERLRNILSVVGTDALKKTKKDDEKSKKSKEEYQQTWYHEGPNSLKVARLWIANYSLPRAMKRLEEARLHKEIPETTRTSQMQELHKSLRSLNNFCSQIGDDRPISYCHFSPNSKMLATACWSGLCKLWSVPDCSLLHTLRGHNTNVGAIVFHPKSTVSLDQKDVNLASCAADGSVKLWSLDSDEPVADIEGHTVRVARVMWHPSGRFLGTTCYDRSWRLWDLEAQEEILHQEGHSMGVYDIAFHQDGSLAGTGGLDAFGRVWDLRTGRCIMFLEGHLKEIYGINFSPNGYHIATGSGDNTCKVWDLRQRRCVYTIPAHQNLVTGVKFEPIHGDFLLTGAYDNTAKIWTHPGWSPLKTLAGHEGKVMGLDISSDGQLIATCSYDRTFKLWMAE
UniProt Q9EPT5, whole entry: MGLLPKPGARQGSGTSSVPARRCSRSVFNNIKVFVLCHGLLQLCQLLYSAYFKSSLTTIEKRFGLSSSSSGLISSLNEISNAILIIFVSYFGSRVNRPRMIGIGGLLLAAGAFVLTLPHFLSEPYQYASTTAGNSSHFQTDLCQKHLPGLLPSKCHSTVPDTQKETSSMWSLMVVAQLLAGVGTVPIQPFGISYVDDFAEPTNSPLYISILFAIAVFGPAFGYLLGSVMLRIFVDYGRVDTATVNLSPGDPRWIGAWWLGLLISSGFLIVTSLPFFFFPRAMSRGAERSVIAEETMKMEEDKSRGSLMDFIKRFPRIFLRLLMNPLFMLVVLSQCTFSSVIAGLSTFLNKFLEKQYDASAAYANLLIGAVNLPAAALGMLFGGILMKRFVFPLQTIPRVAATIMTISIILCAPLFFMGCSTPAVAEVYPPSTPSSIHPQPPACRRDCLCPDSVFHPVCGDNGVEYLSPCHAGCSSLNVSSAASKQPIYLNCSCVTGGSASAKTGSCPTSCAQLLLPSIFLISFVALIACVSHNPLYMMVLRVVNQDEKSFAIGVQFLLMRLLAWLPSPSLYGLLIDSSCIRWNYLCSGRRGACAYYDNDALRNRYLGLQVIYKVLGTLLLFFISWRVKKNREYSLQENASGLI

Compound in this assay: CN[C@@H]1C[C@H]2O[C@@](C)([C@@H]1OC)n1c3ccccc3c3c4c(c5c6ccccc6n2c5c31)C(=O)NC4 [staurosporine]
The experiment in a line: log2 fold change of tryptic peptide abundance, ligand vs vehicle (limited proteolysis) (log2 ratio); higher = more trypsin-susceptible (destabilized). The conditions noted are these: ligand concentration: 20 uM; sample: mouse liver crude lysate; replicate design: treated separately.
Regarding “UniProt Q9ER39 (peptide sequence: KPLTLSLHGWTGTGK, peptide start residue: 95)”, the log2 fold change was -0.202.

Turning to “UniProt Q9ERL9 (peptide sequence: NAEGSLPQR, peptide start residue: 54)”, the log2 fold change is -0.293.

As for “UniProt Q9DCB4 (peptide sequence: SIEEREEEYQR, peptide start residue: 283)”, the log2 fold change was 0.035.

Consider “UniProt Q9EPB8 (peptide sequence: YIINIFR, peptide start residue: 294)”, for which the log2 fold change was 0.0623.

Take “UniProt Q9DCJ7 (peptide sequence: EAPENWQTPK, peptide start residue: 185)”: the log2 fold change turned out to be 0.114.

As to “UniProt Q9DB90 (peptide sequence: WKEPGSSGPQNLSGPGGR, peptide start residue: 20)”, the log2 fold change is -0.412.

With “UniProt Q9DBE9 (peptide sequence: LACDFLAR, peptide start residue: 143)”, the log2 fold change was 0.54.

As to “UniProt Q9DBY8 (peptide sequence: MKPRPGVFVDR, peptide start residue: 1)”, the log2 fold change worked out at 0.297.

Regarding “UniProt Q9DB98 (peptide sequence: RYNSQFNPQLAR, peptide start residue: 239)”, the log2 fold change was -0.425.

On to “UniProt Q9DB07 (peptide sequence: YTPQLIDLDHK, peptide start residue: 85)”, for which the log2 fold change came to 0.613.

For “UniProt Q9ERH6 (peptide sequence: YKKLSVFSGR, peptide start residue: 164)”, the log2 fold change turned out to be 0.285.

On to “UniProt Q9ERE7 (peptide sequence: LLEQWEKDDDIEEGDLPEHK, peptide start residue: 57)”, for which the log2 fold change was -0.0683.

As for “UniProt Q9DD02 (peptide sequence: RLAQNPLFWKT, peptide start residue: 187)”, the log2 fold change is -0.541.

“UniProt Q9DCT5 (peptide sequence: AEVHHAEL, peptide start residue: 204)”: the log2 fold change is -0.176.

Consider “UniProt Q9DB05 (peptide sequence: IEEACEIYAR, peptide start residue: 38)”, for which the log2 fold change amounted to 0.197.

As to “UniProt Q9DB52 (peptide sequence: KCEMETDYQPKR, peptide start residue: 202)”, the log2 fold change was -0.178.

Consider “UniProt Q9DCC7 (peptide sequence: ILYFPQIVSK, peptide start residue: 31)”, for which the log2 fold change is -0.202.

Consider “UniProt Q9DBM1 (peptide sequence: AIVTTDDFASK, peptide start residue: 109)”, for which the log2 fold change is -0.29.

On to “UniProt Q9DCT2 (peptide sequence: DHTNAQFK, peptide start residue: 101)”, for which the log2 fold change was 0.853.

Turning to “UniProt Q9DBY0 (peptide sequence: HLNTEHALDDR, peptide start residue: 332)”, the log2 fold change is -0.687.

Consider “UniProt Q9EQ06 (peptide sequence: KLGAQAHPFVVDCSQR, peptide start residue: 82)”, for which the log2 fold change was -0.653.

For the target “UniProt Q9DCJ1 (peptide sequence: NIASVGFHEDGR, peptide start residue: 87)”, the log2 fold change came to 0.472.

Consider “UniProt Q9DCD5 (peptide sequence: AWPLPSPSRPQR, peptide start residue: 511)”, for which the log2 fold change is -0.404.

Regarding “UniProt Q9DCS3 (peptide sequence: NHSPDEFK, peptide start residue: 318)”, the log2 fold change was -0.391.

As to “UniProt Q9ERI2 (peptide sequence: ANGPDGAVGR, peptide start residue: 55)”, the log2 fold change was -0.344.

With “UniProt Q9DC07 (peptide sequence: YHEDFEK, peptide start residue: 122)”, the log2 fold change was 0.0134.

Take “UniProt Q9DAW6 (peptide sequence: NILSVVGTDALKK, peptide start residue: 134)”: the log2 fold change is 0.173.

Turning to “UniProt Q9EPT5 (peptide sequence: SVIAEETMK, peptide start residue: 289)”, the log2 fold change is -0.111.

As to “UniProt Q9DBT5 (peptide sequence: SLPGNAPCLK, peptide start residue: 45)”, the log2 fold change was found to be 0.063.

The values are drawn from the supplement of paper PMC12819154, “High-throughput peptide-centric local stability assay extends protein–ligand identification to membrane proteins, tissues and bacteria” (Nature Structural & Molecular Biology, 2025).
